Data: the supplement of paper PMC6411743
± gives the standard deviation of the averaged measurements. Only a part is listed here, and it is no random draw.

By UniProt entry, the sequences of proteins in these tests, tags left out. Where a name states a change or a piece, a line headed by the entry shows the natural chain unless it says otherwise.
UniProt P49903: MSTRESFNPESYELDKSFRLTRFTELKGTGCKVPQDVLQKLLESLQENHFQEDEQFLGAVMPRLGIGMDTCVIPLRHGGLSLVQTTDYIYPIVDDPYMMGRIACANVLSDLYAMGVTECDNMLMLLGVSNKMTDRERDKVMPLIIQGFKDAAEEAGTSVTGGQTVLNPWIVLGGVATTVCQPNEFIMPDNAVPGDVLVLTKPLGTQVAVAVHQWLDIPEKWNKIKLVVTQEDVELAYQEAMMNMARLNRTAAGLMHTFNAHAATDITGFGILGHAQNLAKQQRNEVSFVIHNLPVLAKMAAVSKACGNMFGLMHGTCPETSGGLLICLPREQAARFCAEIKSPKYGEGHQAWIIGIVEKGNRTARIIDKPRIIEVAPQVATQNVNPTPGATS
UniProt P51571: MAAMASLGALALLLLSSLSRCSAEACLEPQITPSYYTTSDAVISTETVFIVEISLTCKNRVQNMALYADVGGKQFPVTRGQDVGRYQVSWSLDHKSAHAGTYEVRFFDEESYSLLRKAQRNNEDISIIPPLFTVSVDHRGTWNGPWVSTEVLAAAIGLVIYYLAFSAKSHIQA
UniProt P49458: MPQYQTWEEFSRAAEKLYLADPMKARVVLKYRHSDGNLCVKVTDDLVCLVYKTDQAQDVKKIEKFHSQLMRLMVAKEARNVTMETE
UniProt P49711: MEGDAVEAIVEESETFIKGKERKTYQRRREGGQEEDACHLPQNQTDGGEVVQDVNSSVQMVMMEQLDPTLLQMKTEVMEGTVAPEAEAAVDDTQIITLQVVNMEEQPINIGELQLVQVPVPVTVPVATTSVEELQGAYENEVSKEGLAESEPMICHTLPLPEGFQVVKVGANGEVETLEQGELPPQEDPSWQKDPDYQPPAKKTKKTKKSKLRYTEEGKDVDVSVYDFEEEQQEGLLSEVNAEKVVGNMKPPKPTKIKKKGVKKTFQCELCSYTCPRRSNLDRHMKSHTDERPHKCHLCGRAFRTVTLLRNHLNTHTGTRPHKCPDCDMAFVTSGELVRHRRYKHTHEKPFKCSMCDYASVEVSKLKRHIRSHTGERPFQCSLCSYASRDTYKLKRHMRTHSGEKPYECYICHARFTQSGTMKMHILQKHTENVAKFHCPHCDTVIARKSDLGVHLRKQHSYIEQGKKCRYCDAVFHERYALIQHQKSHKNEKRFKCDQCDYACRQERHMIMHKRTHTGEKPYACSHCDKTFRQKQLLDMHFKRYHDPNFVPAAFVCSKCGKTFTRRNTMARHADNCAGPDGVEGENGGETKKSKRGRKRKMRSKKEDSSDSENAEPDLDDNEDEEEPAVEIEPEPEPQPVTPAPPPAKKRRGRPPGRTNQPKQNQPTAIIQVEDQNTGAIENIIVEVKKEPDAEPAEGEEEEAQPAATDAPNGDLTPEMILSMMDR
UniProt P48637: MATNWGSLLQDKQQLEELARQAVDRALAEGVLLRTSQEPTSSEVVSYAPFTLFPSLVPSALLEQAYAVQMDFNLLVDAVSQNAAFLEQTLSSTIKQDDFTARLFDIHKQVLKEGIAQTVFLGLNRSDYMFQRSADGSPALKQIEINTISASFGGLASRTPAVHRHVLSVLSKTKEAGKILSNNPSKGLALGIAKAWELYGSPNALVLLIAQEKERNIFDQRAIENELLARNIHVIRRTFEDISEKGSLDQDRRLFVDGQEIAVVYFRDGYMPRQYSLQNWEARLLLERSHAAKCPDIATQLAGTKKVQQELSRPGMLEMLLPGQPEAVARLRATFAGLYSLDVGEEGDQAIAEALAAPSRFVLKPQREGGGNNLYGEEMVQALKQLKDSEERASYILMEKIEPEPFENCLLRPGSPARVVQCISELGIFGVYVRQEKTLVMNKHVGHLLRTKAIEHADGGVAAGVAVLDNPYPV
UniProt P46736, whole entry: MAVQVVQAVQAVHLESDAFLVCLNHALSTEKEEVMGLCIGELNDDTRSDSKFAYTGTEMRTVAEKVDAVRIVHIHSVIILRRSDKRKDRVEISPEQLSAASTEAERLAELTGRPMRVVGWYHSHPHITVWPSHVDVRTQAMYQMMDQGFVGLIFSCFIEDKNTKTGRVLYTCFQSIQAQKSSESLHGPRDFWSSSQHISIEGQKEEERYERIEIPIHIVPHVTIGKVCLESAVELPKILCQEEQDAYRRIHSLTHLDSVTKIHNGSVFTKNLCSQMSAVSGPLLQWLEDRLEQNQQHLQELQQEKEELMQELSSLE
UniProt P52948: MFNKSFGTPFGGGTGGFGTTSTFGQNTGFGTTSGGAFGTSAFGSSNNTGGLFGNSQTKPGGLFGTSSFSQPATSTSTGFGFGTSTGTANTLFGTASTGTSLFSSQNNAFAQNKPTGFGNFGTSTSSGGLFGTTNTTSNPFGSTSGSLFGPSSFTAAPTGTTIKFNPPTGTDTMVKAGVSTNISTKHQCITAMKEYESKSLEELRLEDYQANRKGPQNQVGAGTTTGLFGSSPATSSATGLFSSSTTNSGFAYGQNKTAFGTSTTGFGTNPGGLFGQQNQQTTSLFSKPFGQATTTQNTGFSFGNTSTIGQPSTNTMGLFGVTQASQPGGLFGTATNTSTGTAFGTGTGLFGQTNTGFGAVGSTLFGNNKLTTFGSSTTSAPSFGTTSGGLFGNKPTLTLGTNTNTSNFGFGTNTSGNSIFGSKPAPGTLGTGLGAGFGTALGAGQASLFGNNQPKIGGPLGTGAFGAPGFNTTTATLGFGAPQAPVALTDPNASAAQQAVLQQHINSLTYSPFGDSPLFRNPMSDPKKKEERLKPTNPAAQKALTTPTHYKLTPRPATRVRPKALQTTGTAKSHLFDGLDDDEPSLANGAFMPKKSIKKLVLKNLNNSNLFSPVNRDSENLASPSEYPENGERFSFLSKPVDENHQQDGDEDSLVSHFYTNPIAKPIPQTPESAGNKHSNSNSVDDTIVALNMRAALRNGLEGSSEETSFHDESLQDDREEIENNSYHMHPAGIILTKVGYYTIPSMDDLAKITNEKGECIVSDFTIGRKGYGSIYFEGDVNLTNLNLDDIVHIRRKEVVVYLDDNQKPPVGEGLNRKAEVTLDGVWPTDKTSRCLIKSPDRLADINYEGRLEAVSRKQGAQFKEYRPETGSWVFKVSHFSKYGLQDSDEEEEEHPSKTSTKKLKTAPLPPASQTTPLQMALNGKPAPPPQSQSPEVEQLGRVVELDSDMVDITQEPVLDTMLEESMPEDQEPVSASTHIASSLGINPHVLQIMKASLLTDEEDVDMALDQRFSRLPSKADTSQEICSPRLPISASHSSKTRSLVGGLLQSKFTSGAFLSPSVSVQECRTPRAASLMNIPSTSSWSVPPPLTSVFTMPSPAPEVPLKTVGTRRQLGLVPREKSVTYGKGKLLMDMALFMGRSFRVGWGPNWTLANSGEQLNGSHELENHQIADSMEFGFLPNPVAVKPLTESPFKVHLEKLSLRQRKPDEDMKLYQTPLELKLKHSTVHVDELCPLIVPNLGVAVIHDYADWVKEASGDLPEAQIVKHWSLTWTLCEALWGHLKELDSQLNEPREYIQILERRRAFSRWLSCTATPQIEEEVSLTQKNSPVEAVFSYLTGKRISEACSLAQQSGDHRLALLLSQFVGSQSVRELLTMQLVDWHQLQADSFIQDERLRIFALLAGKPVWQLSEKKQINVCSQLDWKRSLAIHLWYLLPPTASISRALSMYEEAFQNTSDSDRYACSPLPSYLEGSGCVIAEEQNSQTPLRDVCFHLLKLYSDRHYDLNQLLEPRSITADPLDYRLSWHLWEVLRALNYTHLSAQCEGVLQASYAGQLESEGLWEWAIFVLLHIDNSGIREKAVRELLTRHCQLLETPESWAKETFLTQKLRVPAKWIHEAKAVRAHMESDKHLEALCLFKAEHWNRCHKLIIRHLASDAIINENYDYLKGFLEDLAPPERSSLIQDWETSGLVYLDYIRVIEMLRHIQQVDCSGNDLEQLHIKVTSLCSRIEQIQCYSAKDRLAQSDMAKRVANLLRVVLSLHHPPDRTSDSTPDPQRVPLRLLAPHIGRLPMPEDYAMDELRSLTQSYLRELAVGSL
UniProt P52788: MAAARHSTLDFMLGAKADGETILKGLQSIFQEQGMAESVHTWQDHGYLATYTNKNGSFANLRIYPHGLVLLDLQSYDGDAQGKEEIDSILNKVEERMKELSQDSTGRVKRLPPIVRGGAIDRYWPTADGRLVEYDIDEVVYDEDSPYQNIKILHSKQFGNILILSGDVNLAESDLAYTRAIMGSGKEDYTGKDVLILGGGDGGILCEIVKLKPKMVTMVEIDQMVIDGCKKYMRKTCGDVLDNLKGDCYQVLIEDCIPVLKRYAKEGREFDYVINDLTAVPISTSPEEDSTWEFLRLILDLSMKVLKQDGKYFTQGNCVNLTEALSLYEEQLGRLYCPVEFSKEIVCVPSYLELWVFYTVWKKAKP
UniProt P46060: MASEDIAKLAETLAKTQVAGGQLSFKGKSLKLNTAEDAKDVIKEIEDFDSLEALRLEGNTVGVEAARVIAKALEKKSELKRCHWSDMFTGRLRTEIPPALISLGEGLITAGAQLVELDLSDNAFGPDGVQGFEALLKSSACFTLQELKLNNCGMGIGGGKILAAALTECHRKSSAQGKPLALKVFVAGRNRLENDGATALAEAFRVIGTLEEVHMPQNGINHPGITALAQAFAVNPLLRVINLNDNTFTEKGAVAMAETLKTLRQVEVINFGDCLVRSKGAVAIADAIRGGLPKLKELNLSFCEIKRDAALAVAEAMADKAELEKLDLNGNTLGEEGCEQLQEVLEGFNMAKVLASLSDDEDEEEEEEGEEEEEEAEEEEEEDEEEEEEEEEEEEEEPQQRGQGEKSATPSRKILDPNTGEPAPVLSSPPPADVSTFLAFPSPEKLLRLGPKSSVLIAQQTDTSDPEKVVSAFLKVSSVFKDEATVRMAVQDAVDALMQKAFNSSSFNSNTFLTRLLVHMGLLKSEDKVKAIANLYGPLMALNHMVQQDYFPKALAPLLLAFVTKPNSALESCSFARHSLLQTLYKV
UniProt P54277: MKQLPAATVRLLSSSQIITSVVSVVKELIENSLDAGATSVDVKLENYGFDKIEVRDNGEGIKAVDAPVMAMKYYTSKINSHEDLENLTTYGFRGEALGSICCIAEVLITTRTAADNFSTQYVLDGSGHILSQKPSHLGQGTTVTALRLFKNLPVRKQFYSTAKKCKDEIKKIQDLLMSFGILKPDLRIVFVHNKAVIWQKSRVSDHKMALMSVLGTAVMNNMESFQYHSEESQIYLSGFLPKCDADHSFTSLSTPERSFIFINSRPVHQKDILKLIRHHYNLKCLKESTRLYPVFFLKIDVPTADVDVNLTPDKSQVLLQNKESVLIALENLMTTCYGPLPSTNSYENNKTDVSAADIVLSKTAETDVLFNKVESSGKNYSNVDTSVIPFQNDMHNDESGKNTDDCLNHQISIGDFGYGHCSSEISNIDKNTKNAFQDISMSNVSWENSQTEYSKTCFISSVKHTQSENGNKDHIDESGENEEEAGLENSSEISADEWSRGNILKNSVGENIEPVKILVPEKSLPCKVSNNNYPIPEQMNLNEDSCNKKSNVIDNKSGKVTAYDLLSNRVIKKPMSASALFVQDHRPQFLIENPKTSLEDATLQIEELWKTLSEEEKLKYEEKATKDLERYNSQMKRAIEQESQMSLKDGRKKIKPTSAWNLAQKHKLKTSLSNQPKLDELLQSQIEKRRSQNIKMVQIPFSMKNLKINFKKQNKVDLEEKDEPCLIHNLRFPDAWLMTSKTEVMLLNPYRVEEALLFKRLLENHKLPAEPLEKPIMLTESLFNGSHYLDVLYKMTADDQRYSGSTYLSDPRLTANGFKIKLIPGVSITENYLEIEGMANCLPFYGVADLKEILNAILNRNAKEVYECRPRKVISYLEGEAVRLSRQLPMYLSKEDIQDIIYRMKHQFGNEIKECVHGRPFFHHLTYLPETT
UniProt P49366: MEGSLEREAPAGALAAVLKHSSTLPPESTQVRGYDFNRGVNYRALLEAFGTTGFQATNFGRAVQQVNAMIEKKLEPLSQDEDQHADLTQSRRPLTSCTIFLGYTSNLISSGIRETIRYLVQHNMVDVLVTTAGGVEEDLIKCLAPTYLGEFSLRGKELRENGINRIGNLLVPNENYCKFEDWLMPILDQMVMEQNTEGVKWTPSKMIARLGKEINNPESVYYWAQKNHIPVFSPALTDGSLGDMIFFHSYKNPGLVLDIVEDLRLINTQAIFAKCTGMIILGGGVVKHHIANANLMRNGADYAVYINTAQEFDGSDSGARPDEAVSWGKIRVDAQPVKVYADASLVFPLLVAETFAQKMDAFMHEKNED
UniProt P46734: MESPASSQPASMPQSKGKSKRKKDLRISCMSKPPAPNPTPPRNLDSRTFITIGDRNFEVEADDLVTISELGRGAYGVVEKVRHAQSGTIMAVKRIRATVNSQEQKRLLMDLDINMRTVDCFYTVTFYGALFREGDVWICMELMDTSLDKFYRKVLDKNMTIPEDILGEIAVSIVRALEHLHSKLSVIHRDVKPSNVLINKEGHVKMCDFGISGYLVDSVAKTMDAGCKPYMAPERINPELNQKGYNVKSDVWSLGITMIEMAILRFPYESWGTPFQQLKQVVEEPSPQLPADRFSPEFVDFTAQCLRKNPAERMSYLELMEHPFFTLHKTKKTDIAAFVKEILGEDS

Compound: Nc1ncnc2c1ncn2[C@@H]1O[C@H](COP(=O)(O)OP(=O)(O)NP(=O)(O)O)[C@@H](O)[C@H]1O [adenylyl imidodiphosphate]
Assay: NP40-soluble protein abundance relative to vehicle (solubility fold change) (ratio); higher = more soluble protein in presence of AMP-PNP
Method in brief: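 Crude Jurkat lysate, prepared by Dounce homogenisation, was exposed to eight concentrations from 0.1 to 10 mM for 10 min at room temperature and then 3 min at 37 °C. Solubilisation used 0.8% NP40 with benzonase for 60 min at 4 °C, followed by ultracentrifugation and TMT labelling of the supernatant for LC-MS/MS. After vsn normalisation of intensities, each value is the fold change against the detergent-processed vehicle within each replicate, across three independent experiments.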

Target	NP40-soluble protein abundance (concentration: 1mM)	NP40-soluble protein abundance (concentration: 2mM)	NP40-soluble protein abundance (concentration: 4mM)	NP40-soluble protein abundance (concentration: 6mM)	NP40-soluble protein abundance (concentration: 8mM)	NP40-soluble protein abundance (concentration: 10mM)
TPMT (UniProt P51580)	0.997 ± 0.065	0.931 ± 0.035	0.98 ± 0.046	0.994 ± 0.075	1.03 ± 0.06	0.987 ± 0.083
MNX1 (UniProt P50219)	0.988 ± 0.02	1.01 ± 0.03	1.02 ± 0.023	0.994 ± 0.014	0.9972 ± 0.0056	1.015 ± 0.0047
PIK3CG (UniProt P48736)	0.998 ± 0.041	0.976 ± 0.026	0.997 ± 0.023	0.98 ± 0.028	0.972 ± 0.023	0.959 ± 0.064
SEPHS1 (UniProt P49903)	1.007 ± 0.0076	0.982 ± 0.023	1 ± 0.015	0.979 ± 0.011	0.969 ± 0.016	0.929 ± 0.029
PSMB2 (UniProt P49721)	0.964 ± 0.023	0.86 ± 0.073	0.92 ± 0.062	0.921 ± 0.021	0.97 ± 0.038	0.892 ± 0.062
RAB28 (UniProt P51157)	1.01 ± 0.045	0.982 ± 0.045	1.01 ± 0.023	0.978 ± 0.055	0.996 ± 0.016	0.988 ± 0.025
SSR4 (UniProt P51571)	0.998 ± 0.014	0.961 ± 0.064	0.988 ± 0.019	0.977 ± 0.027	0.998 ± 0.011	0.981 ± 0.037
ELL (UniProt P55199)	1.02 ± 0.034	1.05 ± 0.069	1.06 ± 0.043	1.07 ± 0.026	1.05 ± 0.029	1.11 ± 0.04
SRP9 (UniProt P49458)	0.948 ± 0.085	1.06 ± 0.15	1.03 ± 0.12	1.21 ± 0.21	1.17 ± 0.089	1.12 ± 0.2
CLNS1A (UniProt P54105)	0.997 ± 0.037	1.03 ± 0.023	0.991 ± 0.049	0.949 ± 0.044	0.917 ± 0.041	0.926 ± 0.043
UniProt P49674	0.996 ± 0.018	1.01 ± 0.025	1 ± 0.035	1 ± 0.032	1.03 ± 0.03	1.01 ± 0.042
CTCF (UniProt P49711)	1 ± 0.051	1 ± 0.047	1.02 ± 0.046	0.99 ± 0.061	0.99 ± 0.031	1.01 ± 0.036
UniProt P50995 and related entries	0.981 ± 0.042	1.03 ± 0.11	1.01 ± 0.04	1.05 ± 0.074	1.04 ± 0.09	1.01 ± 0.11
GSS (UniProt P48637)	0.981 ± 0.027	0.918 ± 0.062	0.9826 ± 0.0058	0.98 ± 0.027	0.9833 ± 0.0051	0.9621 ± 0.0045
SMARCA2 (UniProt P51531)	1.01 ± 0.02	1.04 ± 0.065	1.04 ± 0.035	1.05 ± 0.034	1.07 ± 0.033	1.1 ± 0.072
RBM25 (UniProt P49756)	1.02 ± 0.05	1.09 ± 0.029	1.054 ± 0.0066	1.05 ± 0.038	1.07 ± 0.023	1.15 ± 0.024
UniProt P42331 and related entries	1.03 ± 0.043	0.992 ± 0.059	1.04 ± 0.053	0.969 ± 0.043	0.983 ± 0.052	0.976 ± 0.064
EIF5 (UniProt P55010)	1.01 ± 0.02	1.06 ± 0.067	0.999 ± 0.053	1.04 ± 0.026	1.01 ± 0.046	1.06 ± 0.048
CCT4 (UniProt P50991)	0.966 ± 0.072	0.951 ± 0.047	0.931 ± 0.084	0.907 ± 0.12	0.877 ± 0.08	0.905 ± 0.13
GMPS (UniProt P49915)	1 ± 0.02	0.933 ± 0.053	0.971 ± 0.023	0.9656 ± 0.0086	0.976 ± 0.01	0.941 ± 0.035

Target	NP40-soluble protein abundance (concentration: 1mM)	NP40-soluble protein abundance (concentration: 2mM)	NP40-soluble protein abundance (concentration: 4mM)	NP40-soluble protein abundance (concentration: 6mM)	NP40-soluble protein abundance (concentration: 8mM)	NP40-soluble protein abundance (concentration: 10mM)
UniProt P46736 and related entries	0.961 ± 0.048	0.943 ± 0.03	0.984 ± 0.024	0.985 ± 0.04	0.995 ± 0.022	0.955 ± 0.019
SUB1 (UniProt P53999)	0.923 ± 0.049	1 ± 0.19	0.916 ± 0.088	1 ± 0.089	0.997 ± 0.043	1.02 ± 0.11
UniProt P52948 and related entries	1.07 ± 0.047	1.1 ± 0.015	1.13 ± 0.018	1.22 ± 0.056	1.28 ± 0.02	1.417 ± 0.011
EIF2S3 (UniProt P41091)	1.02 ± 0.024	0.978 ± 0.053	1.03 ± 0.014	1.14 ± 0.085	1.15 ± 0.034	1.13 ± 0.028
PPP5C (UniProt P53041)	0.956 ± 0.032	0.93 ± 0.033	0.947 ± 0.013	0.996 ± 0.05	1.01 ± 0.045	0.977 ± 0.015
RGS19 (UniProt P49795)	1 ± 0.029	1.01 ± 0.031	0.9813 ± 0.0014	0.996 ± 0.031	0.995 ± 0.026	0.98 ± 0.014
ALDH9A1 (UniProt P49189)	1.01 ± 0.013	0.932 ± 0.054	0.989 ± 0.026	0.9829 ± 0.0095	0.994 ± 0.021	0.964 ± 0.037
SMS (UniProt P52788)	1.01 ± 0.025	0.99 ± 0.055	0.957 ± 0.034	0.963 ± 0.033	0.949 ± 0.025	0.944 ± 0.045
SLC25A1 (UniProt P53007)	0.915 ± 0.044	0.857 ± 0.021	0.931 ± 0.089	0.983 ± 0.075	1.04 ± 0.059	1.06 ± 0.15
UniProt P49588 and related entries	1.01 ± 0.013	0.976 ± 0.05	0.967 ± 0.041	0.979 ± 0.013	0.954 ± 0.03	0.952 ± 0.05
UniProt P41250	0.982 ± 0.014	0.949 ± 0.029	0.9464 ± 0.006	0.99 ± 0.029	0.973 ± 0.045	0.956 ± 0.031
UniProt P46783 and related entries	1.03 ± 0.055	1.03 ± 0.045	0.97 ± 0.054	0.871 ± 0.11	0.845 ± 0.059	0.882 ± 0.11
UniProt P43307 and related entries	0.945 ± 0.056	0.966 ± 0.02	1 ± 0.066	0.985 ± 0.049	1.03 ± 0.061	0.977 ± 0.1
HINT1 (UniProt P49773)	0.96 ± 0.012	0.983 ± 0.018	0.924 ± 0.022	0.96 ± 0.029	0.946 ± 0.042	0.899 ± 0.049
UniProt P49750-3|P49750-4	1.07 ± 0.027	1.17 ± 0.077	1.17 ± 0.015	1.23 ± 0.065	1.25 ± 0.07	1.35 ± 0.085
CDKN1B (UniProt P46527)	1.06 ± 0.034	1.1 ± 0.1	1.04 ± 0.03	0.987 ± 0.064	0.964 ± 0.019	0.996 ± 0.068
RANGAP1 (UniProt P46060)	0.9947 ± 0.0076	1 ± 0.032	1 ± 0.036	1.03 ± 0.054	1.04 ± 0.05	1.07 ± 0.064
PHKA2 (UniProt P46019)	0.976 ± 0.043	0.954 ± 0.093	0.96 ± 0.057	0.919 ± 0.081	0.92 ± 0.077	0.917 ± 0.098
NEK4 (UniProt P51957)	0.998 ± 0.059	1.01 ± 0.1	1 ± 0.094	0.967 ± 0.09	0.974 ± 0.069	0.981 ± 0.09
CTSC (UniProt P53634)	0.997 ± 0.019	1.09 ± 0.11	1.03 ± 0.034	1.04 ± 0.051	1.06 ± 0.067	1.06 ± 0.047

Target	NP40-soluble protein abundance (concentration: 1mM)	NP40-soluble protein abundance (concentration: 2mM)	NP40-soluble protein abundance (concentration: 4mM)	NP40-soluble protein abundance (concentration: 6mM)	NP40-soluble protein abundance (concentration: 8mM)	NP40-soluble protein abundance (concentration: 10mM)
MAGEA9 (UniProt P43362)	0.9861 ± 0.0097	0.978 ± 0.015	0.9773 ± 0.0039	0.979 ± 0.038	0.977 ± 0.053	0.9402 ± 0.0088
NUP153 (UniProt P49790)	1.03 ± 0.024	1.09 ± 0.055	1.06 ± 0.018	1.09 ± 0.048	1.09 ± 0.05	1.17 ± 0.018
MFAP1 (UniProt P55081)	1.06 ± 0.032	1.08 ± 0.11	1.03 ± 0.045	1.09 ± 0.028	1.05 ± 0.054	1.07 ± 0.045
UniProt P54277 and related entries	1.06 ± 0.013	1.07 ± 0.038	1.089 ± 0.0092	1.03 ± 0.046	1.05 ± 0.012	1.07 ± 0.026
MAPKAPK2 (UniProt P49137)	0.995 ± 0.011	1.02 ± 0.082	1.02 ± 0.017	1.05 ± 0.058	1.05 ± 0.058	1.07 ± 0.046
P42166 and related entries (UniProt P42167+P42166)	1.06 ± 0.015	1.12 ± 0.081	1.08 ± 0.044	1.08 ± 0.029	1.05 ± 0.029	1.1 ± 0.043
UniProt P53004 and related entries	0.964 ± 0.052	0.891 ± 0.052	0.936 ± 0.043	0.982 ± 0.067	1.01 ± 0.049	0.949 ± 0.038
HIRA (UniProt P54198)	1.02 ± 0.013	0.995 ± 0.024	1 ± 0.035	1.01 ± 0.013	1.01 ± 0.023	1.02 ± 0.017
HSD17B4 (UniProt P51659)	1.01 ± 0.034	0.967 ± 0.026	1.04 ± 0.041	1.09 ± 0.058	1.12 ± 0.033	1.1 ± 0.034
DHPS (UniProt P49366)	1.02 ± 0.012	1.01 ± 0.024	1 ± 0.029	0.989 ± 0.024	0.977 ± 0.015	0.975 ± 0.04
UniProt P51790 and related entries	0.9919 ± 0.0049	0.953 ± 0.033	0.9789 ± 0.0064	1 ± 0.051	1.042 ± 0.0058	1.02 ± 0.048
UniProt P49589 and related entries	1 ± 0.018	0.972 ± 0.036	0.957 ± 0.03	0.949 ± 0.013	0.9488 ± 0.0077	0.929 ± 0.04
HSPA2 (UniProt P54652)	1.01 ± 0.025	1 ± 0.034	1.01 ± 0.0021	0.9977 ± 0.0056	1.01 ± 0.029	0.999 ± 0.017
UniProt P55060 and related entries	1 ± 0.012	1.02 ± 0.11	0.987 ± 0.032	1.01 ± 0.04	0.985 ± 0.027	1.02 ± 0.04
PTPN9 (UniProt P43378)	0.982 ± 0.043	0.944 ± 0.031	0.977 ± 0.05	0.978 ± 0.026	0.968 ± 0.02	0.974 ± 0.017
RANBP2 (UniProt P49792)	1.04 ± 0.038	1.06 ± 0.027	1.04 ± 0.027	1.06 ± 0.056	1.07 ± 0.066	1.16 ± 0.082
RBM5 (UniProt P52756)	1.05 ± 0.026	1.072 ± 0.0062	1.09 ± 0.038	1.06 ± 0.071	1.06 ± 0.061	1.1 ± 0.071
ST13 (UniProt P50502)	0.965 ± 0.024	1.06 ± 0.12	1 ± 0.024	1.03 ± 0.031	0.976 ± 0.028	1.01 ± 0.03
UniProt P46734 and related entries	1.08 ± 0.065	1.13 ± 0.029	1.09 ± 0.049	1.06 ± 0.082	1.03 ± 0.11	1.06 ± 0.077

Three entries from above, field by field.
DHPS (UniProt P49366)
  NP40-soluble protein abundance (concentration: 1mM): 1.02 ± 0.012; NP40-soluble protein abundance (concentration: 2mM): 1.01 ± 0.024; NP40-soluble protein abundance (concentration: 4mM): 1 ± 0.029; NP40-soluble protein abundance (concentration: 6mM): 0.989 ± 0.024; NP40-soluble protein abundance (concentration: 8mM): 0.977 ± 0.015; NP40-soluble protein abundance (concentration: 10mM): 0.975 ± 0.04
UniProt P51790 and related entries
  NP40-soluble protein abundance (concentration: 1mM): 0.9919 ± 0.0049; NP40-soluble protein abundance (concentration: 2mM): 0.953 ± 0.033; NP40-soluble protein abundance (concentration: 4mM): 0.9789 ± 0.0064; NP40-soluble protein abundance (concentration: 6mM): 1 ± 0.051; NP40-soluble protein abundance (concentration: 8mM): 1.042 ± 0.0058; NP40-soluble protein abundance (concentration: 10mM): 1.02 ± 0.048
UniProt P49589 and related entries
  NP40-soluble protein abundance (concentration: 1mM): 1 ± 0.018; NP40-soluble protein abundance (concentration: 2mM): 0.972 ± 0.036; NP40-soluble protein abundance (concentration: 4mM): 0.957 ± 0.03; NP40-soluble protein abundance (concentration: 6mM): 0.949 ± 0.013; NP40-soluble protein abundance (concentration: 8mM): 0.9488 ± 0.0077; NP40-soluble protein abundance (concentration: 10mM): 0.929 ± 0.04
